Experimental data from PMC6214909, “An asparagine/glycine switch governs product specificity of human N-terminal methyltransferase NTMT2” (Communications Biology, 2018).
These are yes or no findings as the source states them, for the method shown.

T1: NTMT2 (residues 58–278) D232A mutant (human) (UniProt Q5VVY1)
T1 sequence: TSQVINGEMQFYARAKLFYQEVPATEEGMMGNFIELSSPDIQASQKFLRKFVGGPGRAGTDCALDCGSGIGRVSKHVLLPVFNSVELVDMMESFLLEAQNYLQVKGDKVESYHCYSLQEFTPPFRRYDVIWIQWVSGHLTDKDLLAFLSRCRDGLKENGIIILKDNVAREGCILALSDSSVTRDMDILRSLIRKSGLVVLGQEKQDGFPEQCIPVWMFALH

T2: NTMT2 (residues 58–278) N223A mutant (human) (UniProt Q5VVY1)
T2 sequence: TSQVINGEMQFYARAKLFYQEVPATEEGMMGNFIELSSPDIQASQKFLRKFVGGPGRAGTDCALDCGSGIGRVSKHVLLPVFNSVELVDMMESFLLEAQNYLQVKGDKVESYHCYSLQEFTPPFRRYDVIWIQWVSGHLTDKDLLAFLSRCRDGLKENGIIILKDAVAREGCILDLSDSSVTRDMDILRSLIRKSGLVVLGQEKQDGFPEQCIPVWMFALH

T3: NTMT2 (residues 58–278) D235A mutant (human) (UniProt Q5VVY1)
T3 sequence: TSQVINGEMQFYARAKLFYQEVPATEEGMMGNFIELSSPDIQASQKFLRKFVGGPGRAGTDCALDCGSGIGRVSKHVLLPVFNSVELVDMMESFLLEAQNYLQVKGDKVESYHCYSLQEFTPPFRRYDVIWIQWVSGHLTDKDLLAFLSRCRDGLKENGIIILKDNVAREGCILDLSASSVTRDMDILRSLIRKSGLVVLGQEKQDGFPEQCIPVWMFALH


What was measured:
Test in all cases: ITC; peptide (0.6–1.2 mM) titrated into protein (50–80 μM); 20 mM Tris–HCl pH 7.5, 150 mM NaCl, 0.5 mM TCEP, 25 °C; MicroCal VP-ITC; both purified
[1] = molecular target: T1, NTMT2 (residues 58–278) D232A mutant (human)
[2] = molecular target: T2, NTMT2 (residues 58–278) N223A mutant (human)
[3] = molecular target: T3, NTMT2 (residues 58–278) D235A mutant (human)
[4] = molecular target: human NTMT2 (residues 58–278), wild type (human) (UniProt Q5VVY1)

Binder | binding [1] | binding [2] | binding [3] | binding [4]
SPKRIA [SPKRIA peptide (N-terminal hexapeptide of RCC1)] | no binding (tested: protein 50–80 μM, peptide 0.6–1.2 mM) | no binding (tested: protein 50–80 μM, peptide 0.6–1.2 mM) | no binding (tested: protein 50–80 μM, peptide 0.6–1.2 mM) | 
APKRIA (mono-methylated alpha-amino group on the first residue A1 (Ame1)) [Ame1PKRIA peptide] |  |  |  | no binding (tested: protein 50–80 μM, peptide 0.6–1.2 mM)
